Test results: paper PMC13038412, “Hetero-oligomerization drives structural plasticity of eukaryotic peroxiredoxins” (Nature Chemical Biology, 2026)
These are yes or no findings as the source states them, for the method shown. A result given as binding can be weak or reduced; the word gives no strength. Where a sequence is shown, tags or fusion partners need not be part of it. For some assays here: Binding seen in cells or lysates may run through a third protein.

Sequences of proteins named here, by UniProt entry; tags and fusion partners are left off. A change or cut given only in a name is not applied to a line headed by its entry.
UniProt P34760: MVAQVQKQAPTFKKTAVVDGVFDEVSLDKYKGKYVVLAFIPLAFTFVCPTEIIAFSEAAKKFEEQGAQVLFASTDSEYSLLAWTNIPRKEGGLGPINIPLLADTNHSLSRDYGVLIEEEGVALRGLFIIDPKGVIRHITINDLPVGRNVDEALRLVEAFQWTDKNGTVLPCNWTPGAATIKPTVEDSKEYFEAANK

Legend:
[1] = target: T1, roGFP2-AtBAS1A (A. thaliana) (UniProt Q96291); test: native gel or EMSA; clear native PAGE of lysates from Δtsa1Δtsa2 yeast coexpressing a roGFP2-peroxiredoxin fusion with an empty vector or an unfused peroxiredoxin; imaged for GFP fluorescence
T1 sequence: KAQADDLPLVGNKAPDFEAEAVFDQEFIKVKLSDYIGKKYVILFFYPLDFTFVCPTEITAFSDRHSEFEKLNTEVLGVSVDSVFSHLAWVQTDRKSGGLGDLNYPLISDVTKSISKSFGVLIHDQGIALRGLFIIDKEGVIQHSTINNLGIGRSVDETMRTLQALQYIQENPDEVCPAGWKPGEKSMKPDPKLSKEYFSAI

[2] = target: T2, His6-Tsa2 (S. cerevisiae, UniProt Q04120 1-196); test: pull-down + other: nonreducing SDS-PAGE of disulfide-linked dimers; coexpressed in E. coli, tandem-affinity copurification; samples treated with 10 mM NEM, nonreducing SDS-PAGE, western blot
T2 construct: Tsa2, Prx1/AhpC-type peroxiredoxin of Saccharomyces cerevisiae; TSA2 from pET15b/His6-TSA2; calculated mass of His6-Tsa2 23.8 kDa; also called His6-tagged Tsa2; His-Tsa2; source: E. coli SHuffle T7 Express, purified (Ni-NTA) from pET15b; or coexpressed with Strep-Tsa1 / Strep-Tsa1ΔCR from pCOLADuet and tandem purified (Ni-NTA, StrepTactin); not shown: His6, N-terminal, kept
T2 sequence (looked up): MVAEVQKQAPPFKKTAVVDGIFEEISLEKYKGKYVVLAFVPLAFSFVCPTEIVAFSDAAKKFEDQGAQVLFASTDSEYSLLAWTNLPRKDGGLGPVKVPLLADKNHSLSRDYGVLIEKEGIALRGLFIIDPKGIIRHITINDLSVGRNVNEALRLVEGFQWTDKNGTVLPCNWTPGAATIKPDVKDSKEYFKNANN

| binding [1] | binding [2] | Substance |
| --- | --- | --- |
| binds |  | AtBAS1B (A. thaliana) (enzyme) |
|  | binds | Strep-Tsa1ΔCR (from UniProt P34760) (enzyme) |
